Data: paper PMC4588886, “A link between magnesium-chelatase H subunit and sucrose nonfermenting 1 (SNF1)-related protein kinase SnRK2.6/OST1 in Arabidopsis guard cell signalling in response to abscisic acid” (Journal of Experimental Botany, 2015)
These are yes or no findings as the source states them, for the method shown. In cells and extracts the contact can be indirect. Some results given as binding are weak or reduced against the parent protein; the word gives no strength. Where a sequence is shown, tags or fusion partners need not be part of it.

Molecular target: T1, Myc-tagged OST1 protein (transgenic Arabidopsis) (Arabidopsis thaliana) (UniProt Q940H6)
T1 sequence: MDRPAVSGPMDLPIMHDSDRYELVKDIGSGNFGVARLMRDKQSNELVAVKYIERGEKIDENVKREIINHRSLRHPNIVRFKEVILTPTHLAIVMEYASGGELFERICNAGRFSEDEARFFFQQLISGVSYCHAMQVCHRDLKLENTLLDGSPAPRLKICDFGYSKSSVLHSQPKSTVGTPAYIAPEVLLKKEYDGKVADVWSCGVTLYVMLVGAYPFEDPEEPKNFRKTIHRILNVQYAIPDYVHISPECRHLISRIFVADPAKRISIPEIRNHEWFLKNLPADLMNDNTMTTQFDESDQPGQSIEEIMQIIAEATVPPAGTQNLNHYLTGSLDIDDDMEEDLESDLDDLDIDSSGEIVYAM
Experiment: co-IP; total protein of Myc-tagged OST1 over-expression Arabidopsis lines; immunoprecipitation with anti-Myc-tag antibody, blot with anti-ABAR serum; pre-immune serum as control

binding: binds
B1: ABAR protein (endogenous, Arabidopsis total protein) (protein, UniProt Q9FNB0 50-1381)
chain: AVSGNGLFTQTNPEVRRIVPIKRDNVPTVKIVYVVLEAQYQSSLSEAVQSLNKTSRFASYEVVGYLVEELRDKNTYNNFCEDLKDANIFIGSLIFVEELAIKVKDAVEKERDRMDAVLVFPSMPEVMRLNKLGSFSMSQLGQSKSPFFQLFKRKKQGSAGFADSMLKLVRTLPKVLKYLPSDKAQDARLYILSLQFWLGGSPDNLQNFVKMISGSYVPALKGVKIEYSDPVLFLDTGIWHPLAPTMYDDVKEYWNWYDTRRDTNDSLKRKDATVVGLVLQRSHIVTGDDSHYVAVIMELEARGAKVVPIFAGGLDFSGPVEKYFVDPVSKQPIVNSAVSLTGFALVGGPARQDHPRAIEALKKLDVPYLVAVPLVFQTTEEWLNSTLGLHPIQVALQVALPELDGAMEPIVFAGRDPRTGKSHALHKRVEQLCIRAIRWGELKRKTKAEKKLAITVFSFPPDKGNVGTAAYLNVFASIFSVLRDLKRDGYNVEGLPENAETLIEEIIHDKEAQFSSPNLNVAYKMGVREYQDLTPYANALEENWGKPPGNLNSDGENLLVYGKAYGNVFIGVQPTFGYEGDPMRLLFSKSASPHHGFAAYYSYVEKIFKADAVLHFGTHGSLEFMPGKQVGMSDACFPDSLIGNIPNVYYYAANNPSEATIAKRRSYANTISYLTPPAENAGLYKGLKQLSELISSYQSLKDTGRGPQIVSSIISTAKQCNLDKDVDLPDEGLELSPKDRDSVVGKVYSKIMEIESRLLPCGLHVIGEPPSAMEAVATLVNIAALDRPEDEISALPSILAECVGREIEDVYRGSDKGILSDVELLKEITDASRGAVSAFVEKTTNSKGQVVDVSDKLTSLLGFGINEPWVEYLSNTKFYRANRDKLRTVFGFLGECLKLVVMDNELGSLMQALEGKYVEPGPGGDPIRNPKVLPTGKNIHALDPQAIPTTAAMASAKIVVERLVERQKLENEGKYPETIALVLWGTDNIKTYGESLGQVLWMIGVRPIADTFGRVNRVEPVSLEELGRPRIDVVVNCSGVFRDLFINQMNLLDRAIKMVAELDEPVEQNFVRKHALEQAEALGIDIREAATRVFSNASGSYSANISLAVENSSWNDEKQLQDMYLSRKSFAFDSDAPGAGMAEKKQVFEMALSTAEVTFQNLDSSEISLTDVSHYFDSDPTNLVQSLRKDKKKPSSYIADTTTANAQVRTLSETVRLDARTKLLNPKWYEGMMSSGYEGVREIEKRLSNTVGWSATSGQVDNWVYEEANSTFIQDEEMLNRLMNTNPNSFRKMLQTFLEANGRGYWDTSAENIEKLKELYSQVEDKIEGIDR
